The target of this experiment is Aha1-FAM (FAM-labelled Aha1 used with the human Hsp90β variants) (UniProt O95433). Put plainly: AUC; 0.5 µM Aha1-FAM with 3 µM human Hsp90β variant, no nucleotide, 40 mM Hepes pH 7.5, 20 mM KCl, 5 mM MgCl2, 2 mM DTT, 42,000 rpm, 20 °C, fluorescence detection, dc/dt plots; both purified.

The chains behind the UniProt entries cited, without tags or fusion partners. Where a name states a change or a piece, a line headed by the entry shows the natural chain unless it says otherwise.
UniProt O95433: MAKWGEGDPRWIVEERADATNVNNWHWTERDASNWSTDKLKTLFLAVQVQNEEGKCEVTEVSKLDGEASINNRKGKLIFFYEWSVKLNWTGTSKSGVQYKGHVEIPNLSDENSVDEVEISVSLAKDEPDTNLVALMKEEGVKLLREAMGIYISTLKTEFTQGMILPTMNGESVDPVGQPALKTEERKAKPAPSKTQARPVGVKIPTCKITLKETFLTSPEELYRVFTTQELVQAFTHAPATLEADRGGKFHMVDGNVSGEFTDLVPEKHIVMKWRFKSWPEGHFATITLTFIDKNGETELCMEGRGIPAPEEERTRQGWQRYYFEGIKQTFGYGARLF

No constants are given. Whether binding was seen depends on the method and setting. Some binding calls cover weakened binding; strength is not graded here.

Turning to “human Hsp90β K607A (from UniProt P08238 1-724)”, the binding entry was “binds”.
As for “human Hsp90β K607E (from UniProt P08238 1-724)”, the binding entry is recorded as “binds”.
For “human Hsp90β K607I (from UniProt P08238 1-724)”, the binding result was “binds”.
For the substance “human Hsp90β K607R (from UniProt P08238 1-724)”, the binding result is “binds”.
Regarding “human Hsp90β, wild type (from UniProt P08238 1-724)”, the binding entry was “binds”.

The values above are taken from PMC7057950.
